Data source: PubChem BioAssay AID1671195 (Yale University, 2021)

- Screen: 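Regulators of LDL receptor activity judged by labelled LDL uptake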 (primary screen)
- Cells: human Huh7 hepatoma cells
- Reagent: siRNA pool against human genes, 18 nM
- Duration: about 2 to 2.5 days of knockdown, then 8 h LDL uptake
- Challenge: DiI-labelled LDL at 30 µg/ml for 8 h, in lipoprotein-deficient serum medium
- Measurement: 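Per-cell DiI-LDL intensity by automated imaging; well means scaled to the plate median and given as a robust z-score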
- Scale: robust z-score: higher = more LDL uptake after knockdown
- Call rule: 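Active when two or more replicates show a robust z-score above 2 or below -2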
In all, the deposit lists about 22,000 reagents; this is an unselected part. Over the whole deposit, about 1,510 (6.9%) are marked active. 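Active includes knockdowns raising or lowering LDL uptake; positive z-scores mean more uptake, negative mean less.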

gene knocked down | robust z-score, replicate 1 | robust z-score, replicate 2 | robust z-score, replicate 3 | outcome
PDK2 | -0.244 | -0.506 | -0.081 | inactive
SNRPD1 | -0.242 | -0.619 | -0.648 | inactive
H2BC9 | 0.366 | 0.731 | 1.34 | inactive
IL36R | 0.485 | -0.28 | 0.102 | inactive
OR10C1 | 0.916 | -0.292 | 0.191 | inactive
ABCA17P | -0.601 | -0.135 | -0.788 | inactive
C17orf78 | 0.69 | 0.558 | 0.438 | inactive
SPRYD3 | 0.303 | 0.348 | -0.0591 | inactive
HPF1 | -0.312 | 0.219 | 0.282 | inactive
ZNF607 | 0.812 | 0.475 | 0.0967 | inactive
MYOM2 | 0.00774 | -0.363 | 0.608 | inactive
ATPSCKMT | 0.275 | 0.0102 | 0.727 | inactive
HNRNPA1P39 | -0.927 | -0.112 | -0.357 | inactive
CNGA1 | -1.18 | -0.806 | -0.508 | inactive
PPP1R37 | -0.988 | -0.821 | -0.745 | inactive
CPLANE2 | 2.58 | 1.26 | 1.24 | inactive
OR8B8 | -1.65 | -1.3 | -1.25 | inactive
AGR3 | -1.39 | -1.86 | -1.15 | inactive
C2CD5 | -0.583 | 0.82 | 0.499 | inactive
LOC102723968 | -1.14 | -1.12 | -0.727 | inactive
TOX4 | -0.515 | 1.24 | 1.25 | inactive
RFTN1 | -0.209 | 1.58 | -0.64 | inactive
EVA1B | 1.16 | 0.706 | 1.05 | inactive
EPHB2 | 2.11 | 1.15 | -0.0758 | inactive
POTEM | 1.62 | 1.85 | 2.41 | inactive
OR8D1 | -0.104 | -0.268 | -0.0547 | inactive
NAP1L3 | 0.786 | 0.548 | -0.0874 | inactive
ASB6 | 0.427 | -0.736 | 0.0859 | inactive
ZBTB8A | -0.922 | -0.112 | -1.28 | inactive
METAP1D | -1.17 | -1.59 | -1.01 | inactive
MMP2 | 2.01 | 1.07 | 2.06 | active
GDPD4 | -0.442 | -1.86 | -1.05 | inactive
SCN8A | 1.06 | 0.565 | 0.731 | inactive
NDOR1 | 1.21 | -0.23 | 0.328 | inactive
SHANK2 | 2.33 | 3.91 | 2.15 | active
DMAP1 | -0.0887 | 0.305 | 0.268 | inactive
LOC440940 (retired record) | 0.923 | 1.85 | 1.84 | inactive
LOC390641 (retired record) | 0.55 | 0.0668 | 0.449 | inactive
DNAJB8 | -0.225 | 0.00524 | -0.0824 | inactive
BNIP1 | 0.659 | 1.35 | 0.975 | inactive
IGFL2 | 1.83 | 1.56 | 1.97 | inactive
AGAP2 | 0.337 | 0.664 | 0.565 | inactive
SPIN4 | -0.0661 | -0.644 | -0.381 | inactive
ACP6 | 0.168 | 0.386 | 0.461 | inactive
BFSP2 | -1.63 | -1.49 | -2.48 | inactive
TOMM20L | 1.22 | 0.691 | 1.5 | inactive
FAM241B | 1.66 | 1.74 | 1.12 | inactive
ZIM2 | 0.061 | 0.168 | -0.195 | inactive
PSD2 | 1.1 | -0.533 | -0.328 | inactive
ASNS | -0.233 | -0.997 | -2.27 | inactive
TSC22D3 | 0.405 | 0.986 | 0.421 | inactive
ZIM3 | -0.386 | 0.0468 | 0.309 | inactive
ECPAS | 0.205 | 0.934 | -0.513 | inactive
EMC4 | -2.06 | -0.647 | 0.00736 | inactive
ACTN4 | -1.65 | -1.7 | -0.675 | inactive
A2ML1 | 0.59 | 0.728 | 0.0371 | inactive
VSIG8 | 0.67 | 0.7 | 0.951 | inactive
HUWE1 | -0.811 | -0.677 | -1.47 | inactive
SMG6 | -0.693 | -1.89 | -0.315 | inactive
CSPG4 | 1.53 | 1.64 | 1.32 | inactive
AARD | 2.5 | 1.88 | 1.83 | inactive
RTP4 | -2.08 | -1.69 | -1.74 | inactive
SIDT1 | -0.174 | -0.259 | -0.357 | inactive
RPN2 | -0.573 | 0.125 | -0.6 | inactive
NIM1K | -0.809 | -0.881 | -0.978 | inactive
MTMR6 | 0.464 | 0.765 | 0.566 | inactive
P2RY14 | -1.11 | -0.488 | -0.851 | inactive
ALOX5 | -0.187 | -0.0837 | -0.0431 | inactive
